PubChem BioAssay AID504786, Drosophila RNAi Screening Center, 2011
In all, the deposit lists about 21,000 reagents; this is a random part of those with a known target gene and a result. 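Primary screen; positive scores mean lost reporter signal, so the sign may be inverted from the usual convention.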 The numbers tell different reagents against one gene apart. Names joined by + are all predicted targets of the reagent. Further read-outs or replicates are left out here. No sequences are given here.

- Aim: 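Fly genes required for HIF-dependent transcription when hypoxia is mimicked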 (primary screen)
- Cells: Drosophila S2 cells with a stable HIF luciferase reporter
- Reagents: long dsRNA against Drosophila genes, about 0.2 µg dsRNA per well of a 384-well plate
- Timing: three days of knock-down, then 20 h of DFO before reading
- Treatment: desferrioxamine (DFO) at 100 µM, an iron chelator that mimics hypoxia, for 20 h
- Measured: 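Firefly luciferase driven by the mouse ldh-a hypoxia-response element, measured after 20 h of 100 µM DFO; z-scores per plate, higher means more signal lost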
- Reading the numbers: z-score: higher = stronger loss of HIF reporter signal

The first 4 entries as a preview:
Target gene | reagent no. | z-score, replicate 1 | z-score, replicate 2 | z-score, replicate 3
cyp33 + CG34194 | 1 | 0.5 | 0.2 | –
Dd (GeneID 33107) | 1 | -0.2 | 0 | –
plu (GeneID 44848) | 1 | -0.3 | -0.3 | –
CG5880 (GeneID 43268) | 1 | -0.3 | -0.2 | –

Main list, repeating the preview:
Target gene | reagent no. | z-score, replicate 1 | z-score, replicate 2 | z-score, replicate 3
cyp33 + CG34194 | 1 | 0.5 | 0.2 | –
Dd (GeneID 33107) | 1 | -0.2 | 0 | –
plu (GeneID 44848) | 1 | -0.3 | -0.3 | –
CG5880 (GeneID 43268) | 1 | -0.3 | -0.2 | –
Sr-CI (GeneID 33621) | 1 | -0.5 | 0.3 | –
CG3652 (GeneID 33643) | 1 | -0.2 | -0.1 | –
CG6503 (GeneID 50079) | 1 | -0.2 | 0.3 | –
CG42703 (GeneID 10178828) | 1 | -0.7 | 0.4 | –
Theg (GeneID 42585) | 1 | -0.2 | -0.4 | –
CG17191 (GeneID 43249) | 1 | -0.1 | -0.4 | –
CG15577 (GeneID 50378) | 1 | -0.2 | -0.2 | –
CG42490 (retired record) (GeneID 8674118) | 1 | -0.1 | 0.6 | –
RhoGAP1A (GeneID 5740235) | 1 | -0.4 | -0.6 | –
RhoGAP1A (GeneID 5740235) | 2 | -0.5 | -0.7 | –
Pdha (GeneID 31406) | 1 | 0.1 | 0 | –
x16 (GeneID 33967) | 1 | 0.5 | 0.9 | –
x16 (GeneID 33967) | 2 | -0.3 | -0.2 | –
Nup107 (GeneID 34481) | 1 | 0.7 | 1.9 | –
sing (GeneID 32644) | 1 | -0.4 | -0.6 | –
CG17190 (GeneID 42386) | 1 | 0.7 | -0.2 | –
dtn (GeneID 31555) | 1 | -0.3 | -0.5 | –
LManV (GeneID 34205) | 1 | -0.3 | 0 | –
CG1801 (GeneID 33104) | 1 | 0.1 | 0.5 | –
cry (GeneID 42305) | 1 | -0.8 | 0.4 | –
olf186-M (GeneID 37039) | 1 | 0 | 0.3 | –
scat (GeneID 47942) | 1 | -0.3 | -0.4 | –
CG12773 (GeneID 31082) | 1 | -0.1 | 0 | –
qkr54B (GeneID 36966) | 1 | -0.4 | -0.9 | –
hig (GeneID 35949) | 1 | -0.3 | 0.3 | -0.3
Smug (GeneID 42078) | 1 | -0.3 | -0.3 | –
Daxx (GeneID 33906) | 1 | -0.1 | -0.2 | –
CG5721 (GeneID 37084) | 1 | -0.2 | -0.6 | –
exex (GeneID 38884) | 1 | -0.2 | -0.2 | –
Polr2C (GeneID 34796) | 1 | 3 | 3.6 | –
